The campaign covered roughly 340,000 compounds. About 170 (0.05%) were called active. Inconclusive results, whose numbers are uncertain, are shown with a selection of clear calls. Calls follow the shape of the dose curve; as a rule, active = well fitted inhibition curve with a large enough effect in the signal ratio, with a control signal flat (not every such curve was filed as active); inconclusive = small, poorly fitted or top-dose-only effect, or effect the other way, or a change in a side signal; inactive = flat fitted curve, though single readings scatter; the % refers to the signal ratio. Where the call is inconclusive, the potency comes from a doubtful curve fit.
Assay: qHTS Assay to Find Inhibitors of Chronic Active B-Cell Receptor Signaling;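 as to activity change, negative = inhibition: plate controls were basal doxycycline-induced cells for no effect and cells given 10 µM MG132 for full effect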
Conditions: ABC-DLBCL IkBa-CBG/CBR reporter, luminescence ratio (green luciferase fused to IkBa over red control in TMD8 lymphoma cells), 4 h; activity change, negative = inhibition: at 46.1 µM (top of the series) unless noted
How it was run: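 TMD8 human ABC-DLBCL cells with doxycycline-inducible IκBα–green luciferase fusion and unfused red luciferase, in 0.5% FBS medium; compounds up to 46 uM, 4 h at 37C. Green/red luminescence ratio, filter-overlap corrected, fitted to concentration-response curves.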
Potency is read from the fitted curve at half-maximal effect.

Structure (SMILES)	activity change, negative = inhibition	Potency
CC(=O)c1cc(CN2CCC(N3CCC(C(=O)N4CCCC4)CC3)CC2)cs1	inconclusive: -0.305%	
N#C/C(=C\C=C\c1ccccc1)C(=O)NCc1cccnc1		inconclusive: 7.94 µM [falling, partial curve]
CCOC(=O)C1CCN(Cc2ccccc2C(F)(F)F)CC1	inactive	
COc1cccc(CNC(=O)CN(c2ccc(C(C)C)cc2)S(=O)(=O)c2c(C)noc2C)c1	inconclusive: 1.38%	
CC(C)(C)NC(=O)COC(=O)c1ccc(Cl)cc1O	inconclusive: 3.13%	
Oc1ccc(N=Nc2ccc3ccccc3c2)cc1	inconclusive: -13.5%	
O=C(NCCC1=CCCCC1)C1COc2ccccc2O1 (stereo not drawn)	inconclusive: 7.64%	
NC(=O)C1CC(=O)N(c2ccc(OCc3c(F)cccc3Cl)cc2)C1 (stereo not drawn)	inconclusive: -8.88%	
CC(C)[C@H](NC(=O)c1ccccc1)C(=O)OCC(=O)c1c(N)n(C)c(=O)n(C)c1=O	inconclusive: 1.46%	
O=S1(=O)NC2c3ccccc3CC2O1 (stereo not drawn)		inconclusive: 35.5 µM [falling, single point]
COc1ccc(C2N(C(=O)c3ccccc3)CCN2C(=O)c2ccc(C)cc2)cc1 (stereo not drawn)	inactive	
O=C(NCCN1CCOCC1)c1cc(-c2ccc(F)cc2)nc2ccccc12	inconclusive: 11.5%	
CN1C(=O)/C(=C/C=C2/CCCN2C)N(C)C1=S		inconclusive: 35.5 µM [falling, single point]
O=C(NNC(=O)c1ccccc1O)c1cccc(Br)c1		inconclusive: 5.62 µM [rising, single point]
COc1ccc(-c2noc(Cc3cccs3)n2)cc1	inactive	
CCOC(=O)N1CCN(C(=O)CSCC(=O)Nc2nc(-c3ccccc3)cs2)CC1	inconclusive: 10.3%	
Cc1ccc(C)c2sc(N3CCN(C(=O)C(C)(C)C)CC3)nc12		inconclusive: 0.178 µM [rising, full curve, poor fit]
CCc1nnc(NC(=O)c2ccc(NS(=O)(=O)c3ccccc3)cc2)s1	inconclusive: 14.3%	
CN=C(C)c1c(O)c2ccccc2oc1=O	inconclusive: 2.19%	
CCN1C(=O)/C(=C/C=C2\C=CN(CC)c3ccccc32)SC1=S	inconclusive: 7.37%	
Cc1cn(S(=O)(=O)c2ccc(Br)cc2)cn1	inconclusive: 11.5%	
OCc1ncccc1O	inconclusive: -1.73%	
Cc1cc(NC(=O)c2ccoc2C)ccc1Br	inactive	
COc1ccc(-n2nnnc2SCC(=O)c2cc3ccccc3o2)cc1		inconclusive: 22.4 µM [falling, partial curve, poor fit]
O=C(Nc1cccc(-c2cn3ccccc3n2)c1)c1cc2ccccc2oc1=O		inconclusive: 16.4 µM [falling, partial curve]
COc1ccccc1CC(=O)Nc1cccc(C(=O)NN2C(=O)c3ccccc3C2=O)c1		inconclusive: 29.1 µM [falling, single point]

Structures above with a furan ring, fused or not (two):
Structure (SMILES)	activity change, negative = inhibition	Potency
Cc1cc(NC(=O)c2ccoc2C)ccc1Br	inactive	
COc1ccc(-n2nnnc2SCC(=O)c2cc3ccccc3o2)cc1		inconclusive: 22.4 µM [falling, partial curve, poor fit]

3 entries from above, sorted by length of the SMILES, smallest number first:
Structure (SMILES)	activity change, negative = inhibition	Potency
OCc1ncccc1O	inconclusive: -1.73%	
O=C(NCCC1=CCCCC1)C1COc2ccccc2O1 (stereo not drawn)	inconclusive: 7.64%	
CC(C)(C)NC(=O)COC(=O)c1ccc(Cl)cc1O	inconclusive: 3.13%	

The results go on.

Structure (SMILES)	activity change, negative = inhibition	Potency
Cc1cc2c(ncn2C)c(NS(=O)(=O)c2ccc(Cl)cc2)c1C	inconclusive: 4.68%	
O=C(c1cc2ncccn2n1)N1CCc2c([nH]c3ccccc23)C1c1ccccc1F (stereo not drawn)	inconclusive: 17.8%	
COc1ccc(C(=O)NCC(=O)OCC(=O)Nc2ccc(C)c(S(=O)(=O)N(C)C)c2)cc1OC		inconclusive: 11.2 µM [falling, partial curve]
Cc1cc(SCC(=O)c2ccc3c(c2)OCO3)nc2ccccc12		inconclusive: 0.0326 µM [falling, full curve]
COc1cc(OC)c2c(-c3cccc(-c4ccc(OC)c(F)c4)c3)cc(=O)oc2c1		inconclusive: 1.03 µM [falling, full curve]
CCC(C)NC(=O)C1(O)c2ccccc2NC(=O)N1c1ccc(C)c(C)c1 (stereo not drawn)	inconclusive: 0.465%	
NS(=O)(=O)c1ccc(N/N=C/c2ccc[nH]2)c([N+](=O)[O-])c1		inconclusive: 14.1 µM [rising, partial curve, poor fit]
CCN(CC)S(=O)(=O)c1cc(C)ccc1NC(=S)Nc1cccnc1	inconclusive: -9.7%	
CCc1cccc(N(C(=O)c2csnn2)C(C(=O)NC2CCCCC2)c2cccnc2)c1 (stereo not drawn)	inactive	
COc1ccc(-n2c(C)cc(C(=O)Cn3nc(C(=O)O)c4ccccc4c3=O)c2C)cc1		inconclusive: 29.1 µM [falling, partial curve, poor fit]
CCCc1nc(N2CCOCC2)c2sc(=S)n(-c3ccccc3)c2n1	inconclusive: -3.91%	
CCn1c(SCC(=O)Nc2cccc(C)c2)nc2nc3c(cc2c1=O)COC(C)(C)C3		inconclusive: 0.316 µM [falling, full curve, poor fit]
CCCCCSc1nc2c(cnn2-c2ccccc2)c(=O)[nH]1	inactive	
CCCCn1cnc2c(c1=O)c1nc3ccccc3nc1n2Cc1ccc2c(c1)OCO2	inactive	
Cc1cc(C)cc(C(=O)Nc2cc3c4c(c2)CC(=O)N4CCC3)c1	inconclusive: 4.49%	
c1ccc(-c2noc(C34CC5CC(CC(C5)C3)C4)n2)cc1	inconclusive: 7.6%	
COc1ccc(OC)c(COC(=O)c2cc([N+](=O)[O-])ccc2N2CCOCC2)c1	inconclusive: -0.397%	
COc1cccc2cc(-c3nnc(Nc4c(F)cccc4F)s3)c(=O)oc12		inconclusive: 2.24 µM [falling, partial curve, poor fit]
O=C(Cn1cc([N+](=O)[O-])cn1)Nc1ccn(Cc2c(F)c(F)c(F)c(F)c2F)n1	inconclusive: -0.764%	
COc1ccc(C(=O)Nn2c(SCC(=O)c3ccccc3)nc3ccccc3c2=O)cc1		inconclusive: 12.6 µM [falling, partial curve]
O=C(c1ccco1)n1nc(-c2ccccc2)nc1SCc1ccccc1	inconclusive: 3.16%	
Cc1nc2ncnn2c(N2CCC(C(=O)NC3CCCC3)CC2)c1Cc1ccccc1	inconclusive: 10.8%	
CC1CCN(c2nc(-c3ccco3)c3c(c2C#N)CC(C)(C)OC3)CC1		inconclusive: 10.3 µM [activator, partial curve]
Cc1ccc(Cl)cc1-n1ncc2c(N3CCCCCC3)ncnc21	inconclusive: -12.8%	
O=C(Nc1ccc(Cl)cc1C(F)(F)F)c1ccc(Cl)cc1	inconclusive: 10.1%	
CCCc1c(C(=O)NNc2cccc(Cl)c2)cnn1-c1ccccc1	inactive	

Structure (SMILES)	activity change, negative = inhibition	Potency
CCN(Cc1ccccc1)c1ncnc2c1nnn2C		inconclusive: 31.6 µM [falling, single point]
CCN(CC(=O)Nc1c(F)cccc1F)C(=O)CCSc1ccc(C)cc1		inconclusive: 23.1 µM [rising, partial curve, poor fit]
Cc1ccc(-c2nc(CS(=O)CC(=O)N3CCN(c4ncccn4)CC3)c(C)o2)cc1 (stereo not drawn)	inconclusive: 1.52%	
Cc1ccccc1C(=O)Oc1cc(N)n(S(=O)(=O)c2ccccc2)n1	inconclusive: -5.74%	
CCn1nc(C)cc1C(=O)OCC(=O)c1ccc(Cl)cc1	inactive	
CCN(CC)C(=O)CSc1nc2ccc(NC(=O)CSc3nnc(COc4ccccc4C)n3C)cc2s1		inconclusive: 35.5 µM [falling, partial curve, poor fit]
O=C1C=CC(=O)N1Cc1ccccc1	inactive	
CCc1ccc(S(=O)(=O)/N=C2\C=C(Nc3cccc(C(=O)O)c3)C(=O)c3ccccc32)cc1		inconclusive: 7.08 µM [falling, full curve]
Cc1nc(N2CCOCC2)c2c(C)c(C(=O)Nc3ccccc3C(F)(F)F)sc2n1		inconclusive: 3.55 µM [falling, partial curve, poor fit]
COc1cc2c(cc1OC)C(CC#N)=NC(C)(C)C2		active: 16.4 µM
Cc1ccccc1N=C(NOCc1ccccc1)c1nonc1N		inconclusive: 3.66 µM [falling, partial curve, poor fit]
COc1ccc(C(=O)NC(CC(=O)O)c2cc([N+](=O)[O-])ccc2Cl)c(SC)c1 (stereo not drawn)	inconclusive: 16.4%	
CCCCNC(=O)C1CCC(CNS(=O)(=O)c2ccc(Cl)cc2)CC1 (stereo not drawn)	inactive	
Cc1cc(C)cc(N(CCC(=O)Nc2nnc(C)s2)S(=O)(=O)c2ccc(Cl)cc2)c1	inactive	
Cc1ccccc1OCC(=O)NCC1CCCO1 (stereo not drawn)	inconclusive: 20.2%	
CC(Sc1nc(N)c2c3c(sc2n1)CSC(C)(C)C3)C(=O)Nc1ccccc1 (stereo not drawn)	inactive	
CC1C/C(=C/c2cccn2C)C(=O)/C(=C/c2cccn2C)C1 (stereo not drawn)	inconclusive: -10.5%	
CN(C)/C=C/C(=O)c1ccc(-c2ccc(Cl)cc2Cl)o1		inconclusive: 35.5 µM [falling, single point]
CC(=O)OCC(=O)Nc1ccc([N+](=O)[O-])cc1Cl	inconclusive: 6.33%	
O=C(Nc1cccc(-c2nnc(-c3ccccc3)o2)c1)c1ccco1	inconclusive: 8.49%	
COc1ccc(N2CC(NC(=O)c3ccc(S(=O)(=O)N4CCOCC4)cc3)CC2=O)cc1OC (stereo not drawn)	inactive	
COc1cc(/C=C2/SC(=O)NC2=O)ccc1OCc1ccccc1	inactive	
CCN(CC)C(=O)c1sc2c(c1C)c(=O)n(-c1ccc(OC)cc1OC)c(=O)n2CC(=O)c1ccc(Cl)cc1	inconclusive: 8.31%	
O=C(CSc1nc2ncccc2[nH]1)Nc1ccc2c(c1)OCCO2		inconclusive: 23.1 µM [falling, single point]
COc1ccc(CNC(=O)C2CCN(S(=O)(=O)N3CCC4(CC3)OCCO4)CC2)c(OC)c1	inconclusive: -0.191%	
Cc1ccc(NC(=S)NC2CC3CCC(C2)N3Cc2ccco2)cc1C (stereo not drawn)	inactive	

Source: PubChem BioAssay AID493014 (National Center for Advancing Translational Sciences (NCATS), 2011)
